Some results were stated once for a whole list of compounds, not compound by compound. At least one compound was matched to its structure with a doubt left.
Target: T1, AHR-LexA chimera (UniProt P0A7C2+P30561)
T1 construct: expressed in transfected cells; host or cells: Saccharomyces cerevisiae strain GRS4 (with pTT8/hsp82) transformed with pEGAHRNΔ166 and pSH18-34
Format: cell-based
Details: yeast transformed with the chimeric LexA Ah receptor
Description: Poon, D., Schroeder, S., Wang, C. […] Biol. 11, 4809-4821. […] (1 minute) then 50° C. (1 minute) and then 72° C. (1 minute) for 25 cycles.
β-Galactosidase assays carried out on the AHR-LexANΔ166 chimera system were performed as above except for the following changes. Yeast strains were grown from a single colony overnight at 30° C. in 2 ml of selection medium containing either 2% glucose or 2% galactose as a carbon source. Fifty microliters of this primary culture was used to inoculate a 1-ml culture of the same media containing appropriate concentrations of agonist dissolved in Me2SO. The culture was grown for 16-18 hours with vigorous shaking at room temperature. β-Galactosidase activity was determined by adding a 50-μl aliquot of the cultures to 650 μl of Z-buffer, permeabilizing the cells, and incubating with ONPG at 30° C. for 30 minutes. β-Galactosidase units were determined using the following formula: (A420)/(A600 of 1/10 dilution of cells×volume of culture×length of incubation))×1000.
As described above, strain GRS4 was transformed with a AHR-LexAN 166 fusion plasmid, pEGAHRNΔ166 containing the chimeric Ah receptor and a LexA operator reporter plasmid pSH18-34. In this system, expression of the reporter gene was dependent on pEGAHRNΔ166 expresson and on the presence of agonist. […]

By UniProt entry, the sequences of proteins in these tests, tags left out. Where a name states a change or a piece, a line headed by the entry shows the natural chain unless it says otherwise. Chains listed by the source or under a name are the forms on record and can include a tag or linker.
UniProt P0A7C2: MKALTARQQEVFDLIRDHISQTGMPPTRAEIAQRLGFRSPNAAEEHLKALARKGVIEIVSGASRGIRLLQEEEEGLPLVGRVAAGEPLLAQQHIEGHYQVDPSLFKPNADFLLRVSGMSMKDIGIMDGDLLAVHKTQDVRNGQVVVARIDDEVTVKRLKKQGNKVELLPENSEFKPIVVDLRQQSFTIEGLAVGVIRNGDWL
AHR-LexA chimera (UniProt P0A7C2+P30561), UniProt P0A7C2+P30561, fused with the stated changes: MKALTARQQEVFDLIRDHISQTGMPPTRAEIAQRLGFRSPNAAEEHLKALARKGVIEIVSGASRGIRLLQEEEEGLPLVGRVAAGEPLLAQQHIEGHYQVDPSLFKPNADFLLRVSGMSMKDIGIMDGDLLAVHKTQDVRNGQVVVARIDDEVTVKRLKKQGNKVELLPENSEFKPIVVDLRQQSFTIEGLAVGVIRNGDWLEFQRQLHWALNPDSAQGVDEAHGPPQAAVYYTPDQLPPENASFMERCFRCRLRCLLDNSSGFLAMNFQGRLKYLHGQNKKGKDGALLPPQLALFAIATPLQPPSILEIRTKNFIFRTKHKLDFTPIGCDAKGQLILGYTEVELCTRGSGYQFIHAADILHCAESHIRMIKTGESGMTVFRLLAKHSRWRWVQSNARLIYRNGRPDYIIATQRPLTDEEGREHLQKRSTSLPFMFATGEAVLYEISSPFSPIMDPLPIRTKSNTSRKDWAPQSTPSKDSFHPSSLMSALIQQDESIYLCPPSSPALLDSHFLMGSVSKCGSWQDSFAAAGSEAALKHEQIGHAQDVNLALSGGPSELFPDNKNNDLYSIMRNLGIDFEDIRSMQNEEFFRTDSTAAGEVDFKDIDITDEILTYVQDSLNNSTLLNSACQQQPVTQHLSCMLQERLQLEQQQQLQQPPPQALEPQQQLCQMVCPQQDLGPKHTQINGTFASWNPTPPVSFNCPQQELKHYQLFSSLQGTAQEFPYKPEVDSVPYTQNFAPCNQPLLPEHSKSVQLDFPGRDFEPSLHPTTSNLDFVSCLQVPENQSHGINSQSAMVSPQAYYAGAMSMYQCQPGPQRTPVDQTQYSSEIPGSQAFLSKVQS
UniProt P30561: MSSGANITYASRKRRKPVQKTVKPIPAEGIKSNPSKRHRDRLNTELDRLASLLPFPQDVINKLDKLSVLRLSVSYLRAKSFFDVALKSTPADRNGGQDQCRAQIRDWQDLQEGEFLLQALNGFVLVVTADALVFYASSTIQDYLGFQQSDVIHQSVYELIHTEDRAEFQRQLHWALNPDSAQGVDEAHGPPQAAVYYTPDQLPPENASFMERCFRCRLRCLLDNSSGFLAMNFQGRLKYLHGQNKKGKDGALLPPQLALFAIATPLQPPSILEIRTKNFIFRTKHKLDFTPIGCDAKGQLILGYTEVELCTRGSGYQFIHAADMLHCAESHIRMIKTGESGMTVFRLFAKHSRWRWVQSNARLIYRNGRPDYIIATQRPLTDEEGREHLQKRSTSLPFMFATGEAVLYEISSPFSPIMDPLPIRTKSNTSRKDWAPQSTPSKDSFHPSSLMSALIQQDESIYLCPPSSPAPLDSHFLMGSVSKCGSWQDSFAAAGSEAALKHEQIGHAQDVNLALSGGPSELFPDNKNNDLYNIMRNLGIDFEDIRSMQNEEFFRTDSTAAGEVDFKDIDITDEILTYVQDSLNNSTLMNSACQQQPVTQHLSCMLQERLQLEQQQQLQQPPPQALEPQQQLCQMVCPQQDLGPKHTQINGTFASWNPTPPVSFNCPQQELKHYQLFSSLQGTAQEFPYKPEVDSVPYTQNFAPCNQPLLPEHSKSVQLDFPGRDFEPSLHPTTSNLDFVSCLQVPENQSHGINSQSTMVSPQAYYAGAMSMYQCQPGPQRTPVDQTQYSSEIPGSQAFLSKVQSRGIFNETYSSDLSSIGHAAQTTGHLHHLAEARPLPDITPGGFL

| Compound | increases in β-galactosidase activity |
| --- | --- |
| O=c1cc(-c2ccccc2)oc2c1ccc1ccccc12 [αNF, α-naphthoflavone] | greater than 100 fold |
| O=c1cc(-c2ccccc2)oc2ccc3ccccc3c12 [βNF, β-naphthoflavone] | greater than 100 fold |

From US20050288488A1, “Ah receptor cDNA and genetically engineered cells for detecting agonists to the Ah receptor” (Northwestern University, priority 1993, published 2005)
